PubChem BioAssay AID1224830, NIAID – 2016

Screen: 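Genes whose knock-down alters the TNF-alpha reporter response to LPS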 (primary screen)
System: human THP-1 monocytic leukaemia cells, TNF dual-luciferase reporter clone, PMA-differentiated to macrophage-like cells
Reagents: siRNA pool against human genes, 50 nM
Time to read-out: LPS for 4 h, given about 3 days after siRNA transfection
Conditions: bacterial LPS (TLR4 ligand), 10 ng/ml
Measurement: 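Ratio of firefly to renilla light, scaled to the plate median and expressed as a robust z-score per replicate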
Direction: TNF reporter robust z-score: higher = stronger TNF reporter response to LPS
Call rule: 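a well is active when its z-score exceeds 2.8 or falls below -1.5; control wells carry no call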
Here is a random part of about 18,000 deposited reagents. Of all reagents, about 2,900 (16%) were called active. 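Calls are made per well; low scores hint the gene aids the LPS response, high scores that it dampens it.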 Repeated entries: four replicate wells of each siRNA pool.

{"gene":"FNDC7","TNF reporter robust z-score":-0.23,"activity call":"inactive"}
{"gene":"FNDC7","TNF reporter robust z-score":0.42,"activity call":"inactive"}
{"gene":"FNDC7","TNF reporter robust z-score":1.32,"activity call":"inactive"}
{"gene":"FNDC7","TNF reporter robust z-score":-0.42,"activity call":"inactive"}
{"gene":"SLC10A3","TNF reporter robust z-score":-0.55,"activity call":"inactive"}
{"gene":"SLC10A3","TNF reporter robust z-score":-0.81,"activity call":"inactive"}
{"gene":"SLC10A3","TNF reporter robust z-score":-1.25,"activity call":"inactive"}
{"gene":"SLC10A3","TNF reporter robust z-score":-1.59,"activity call":"active"}
{"gene":"RILPL2","TNF reporter robust z-score":2.49,"activity call":"inactive"}
{"gene":"RILPL2","TNF reporter robust z-score":1.11,"activity call":"inactive"}
{"gene":"RILPL2","TNF reporter robust z-score":3.45,"activity call":"active"}
{"gene":"RILPL2","TNF reporter robust z-score":1.47,"activity call":"inactive"}
{"gene":"CLP1","TNF reporter robust z-score":0.93,"activity call":"inactive"}
{"gene":"CLP1","TNF reporter robust z-score":2.02,"activity call":"inactive"}
{"gene":"CLP1","TNF reporter robust z-score":1.29,"activity call":"inactive"}
{"gene":"CLP1","TNF reporter robust z-score":0.85,"activity call":"inactive"}
{"gene":"SSH3","TNF reporter robust z-score":-1.24,"activity call":"inactive"}
{"gene":"SSH3","TNF reporter robust z-score":-0.21,"activity call":"inactive"}
{"gene":"SSH3","TNF reporter robust z-score":-1.05,"activity call":"inactive"}
{"gene":"SSH3","TNF reporter robust z-score":0.14,"activity call":"inactive"}
{"gene":"IDI1","TNF reporter robust z-score":-0.85,"activity call":"inactive"}
{"gene":"IDI1","TNF reporter robust z-score":-0.72,"activity call":"inactive"}
{"gene":"IDI1","TNF reporter robust z-score":-0.13,"activity call":"inactive"}
{"gene":"IDI1","TNF reporter robust z-score":0.19,"activity call":"inactive"}
{"gene":"HAO1","TNF reporter robust z-score":-0.65,"activity call":"inactive"}
{"gene":"HAO1","TNF reporter robust z-score":0.61,"activity call":"inactive"}
{"gene":"HAO1","TNF reporter robust z-score":0.27,"activity call":"inactive"}
{"gene":"HAO1","TNF reporter robust z-score":0.26,"activity call":"inactive"}
{"gene":"LOC642678 (retired record)","TNF reporter robust z-score":2.26,"activity call":"inactive"}
{"gene":"LOC642678 (retired record)","TNF reporter robust z-score":0.09,"activity call":"inactive"}
{"gene":"LOC642678 (retired record)","TNF reporter robust z-score":-0.73,"activity call":"inactive"}
{"gene":"LOC642678 (retired record)","TNF reporter robust z-score":0.23,"activity call":"inactive"}
{"gene":"MRPL46","TNF reporter robust z-score":-0.02,"activity call":"inactive"}
{"gene":"MRPL46","TNF reporter robust z-score":-0.07,"activity call":"inactive"}
{"gene":"MRPL46","TNF reporter robust z-score":0.5,"activity call":"inactive"}
{"gene":"MRPL46","TNF reporter robust z-score":-1.65,"activity call":"active"}
{"gene":"PRKN","TNF reporter robust z-score":-1.58,"activity call":"active"}
{"gene":"PRKN","TNF reporter robust z-score":-0.75,"activity call":"inactive"}
{"gene":"PRKN","TNF reporter robust z-score":-0.12,"activity call":"inactive"}
{"gene":"PRKN","TNF reporter robust z-score":-0.59,"activity call":"inactive"}
{"gene":"FSCB","TNF reporter robust z-score":-1.39,"activity call":"inactive"}
{"gene":"FSCB","TNF reporter robust z-score":0.53,"activity call":"inactive"}
{"gene":"FSCB","TNF reporter robust z-score":0.79,"activity call":"inactive"}
{"gene":"FSCB","TNF reporter robust z-score":0.16,"activity call":"inactive"}
{"gene":"KCND2","TNF reporter robust z-score":-0.78,"activity call":"inactive"}
{"gene":"KCND2","TNF reporter robust z-score":0.31,"activity call":"inactive"}
{"gene":"KCND2","TNF reporter robust z-score":-0.06,"activity call":"inactive"}
{"gene":"KCND2","TNF reporter robust z-score":0.06,"activity call":"inactive"}
